{"source": "PubChem BioAssay AID1259254 (NCATS, 2017)", "aim": "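Gene knock-downs that lead to re-replication, shown by excess G2 DNA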 (primary screen)", "cells": "human HCT116 colorectal cancer cells", "reagent": "single siRNA against human genes", "duration": "3 days", "read-out": "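Imaged Hoechst DNA stain sorts each cell into a cycle phase by DNA amount; per plate, G2 fraction set to 0% for non-targeting and 100% for GMNN siRNA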", "direction": "G2 robust z-score: higher = more G2 cells, more excess DNA replication", "call rule": "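An siRNA counts as active if its G2 robust z-score lies at least 5 MADs above the screen median; here such calls match roughly 38% of GMNN control or more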", "note": "The whole screen tested about 59,000 reagents; shown is a part drawn at random. About 1,550 of them (2.6%) count as active. 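G2 share is only a proxy for re-replication; each gene was hit by three separate siRNAs, and active genes were retested.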 Further read-outs or replicates are left out here. The record does not give: the amount of reagent."}
The first 2 entries as a preview:
{"gene": "PLEKHA2 (pleckstrin homology domain containing A2)", "PubChem SID": "SID160733691", "G2 robust z-score": -0.404, "Outcome": "inactive"}
{"gene": "PLEKHA2 (pleckstrin homology domain containing A2)", "PubChem SID": "SID160746992", "G2 robust z-score": -0.246, "Outcome": "inactive"}

Main list, repeating the preview:
{"gene": "PLEKHA2 (pleckstrin homology domain containing A2)", "PubChem SID": "SID160733691", "G2 robust z-score": -0.404, "Outcome": "inactive"}
{"gene": "PLEKHA2 (pleckstrin homology domain containing A2)", "PubChem SID": "SID160746992", "G2 robust z-score": -0.246, "Outcome": "inactive"}
{"gene": "PLEKHA2 (pleckstrin homology domain containing A2)", "PubChem SID": "SID160746993", "G2 robust z-score": 0.443, "Outcome": "inactive"}
{"gene": "ADRA1A (adrenoceptor alpha 1A)", "PubChem SID": "SID160714923", "G2 robust z-score": 0.0776, "Outcome": "inactive"}
{"gene": "ADRA1A (adrenoceptor alpha 1A)", "PubChem SID": "SID160714935", "G2 robust z-score": -0.878, "Outcome": "inactive"}
{"gene": "ADRA1A (adrenoceptor alpha 1A)", "PubChem SID": "SID160714946", "G2 robust z-score": -0.389, "Outcome": "inactive"}
{"gene": "KRTAP9-2 (keratin associated protein 9-2)", "PubChem SID": "SID160751528", "G2 robust z-score": 0.0468, "Outcome": "inactive"}
{"gene": "KRTAP9-2 (keratin associated protein 9-2)", "PubChem SID": "SID160751529", "G2 robust z-score": -0.0835, "Outcome": "inactive"}
{"gene": "KRTAP9-2 (keratin associated protein 9-2)", "PubChem SID": "SID160751530", "G2 robust z-score": 0.732, "Outcome": "inactive"}
{"gene": "ZNF582 (zinc finger protein 582)", "PubChem SID": "SID160758605", "G2 robust z-score": -0.736, "Outcome": "inactive"}
{"gene": "ZNF582 (zinc finger protein 582)", "PubChem SID": "SID160758607", "G2 robust z-score": 0.877, "Outcome": "inactive"}
{"gene": "ZNF582 (zinc finger protein 582)", "PubChem SID": "SID160758608", "G2 robust z-score": -0.435, "Outcome": "inactive"}
{"gene": "SHISA5 (shisa family member 5)", "PubChem SID": "SID160740395", "G2 robust z-score": -0.76, "Outcome": "inactive"}
{"gene": "SHISA5 (shisa family member 5)", "PubChem SID": "SID160740397", "G2 robust z-score": -0.504, "Outcome": "inactive"}
{"gene": "SHISA5 (shisa family member 5)", "PubChem SID": "SID160740398", "G2 robust z-score": -0.079, "Outcome": "inactive"}
{"gene": "ADAM29 (ADAM metallopeptidase domain 29)", "PubChem SID": "SID160729917", "G2 robust z-score": -1.02, "Outcome": "inactive"}
{"gene": "ADAM29 (ADAM metallopeptidase domain 29)", "PubChem SID": "SID160729919", "G2 robust z-score": -1.28, "Outcome": "inactive"}
{"gene": "ADAM29 (ADAM metallopeptidase domain 29)", "PubChem SID": "SID160729920", "G2 robust z-score": -0.586, "Outcome": "inactive"}
